Test results taken from PMC10443802 (JCI Insight, 2023).
Several values for one entry are separate records, joined by “and”; a condition that tells them apart may be missing. Equal entries are not always repeated. Structures can show the parent of a compound that is named as a salt. Where a SMILES comes first, the peptide text is derived from it. [ ]: non-standard residue; d: D form. Hyp = O=C(O)[CH]1C[CH](O)CN1

System: OATP1B2
Experiment: Untargeted metabolomics of plasma and DRG, WT vs OATP1B2-deficient mice
Format: in vivo, mouse
[1] = untargeted metabolomics, sheet "Figure 5C", WT vs OATP1B2-deficient mice
[2] = Figure 5B source data (volcano plot), untargeted metabolomics, WT vs OATP1B2-deficient mice, log2 fold change of metabolite level
[3] = untargeted metabolomics, WT vs OATP1B2-deficient mice, supplement sheet "Figure 5B"
[4] = untargeted metabolomics, WT vs OATP1B2-deficient mice, supplement sheet "Figure 5B" (volcano plot)

| SMILES | Log2FoldChange [1] | Log2FoldChange [3] | Log2FoldChange [4] | also measured |
| --- | --- | --- | --- | --- |
| Nc1ncnc2c1ncn2[C@@H]1O[C@H](CO)[C@@H](OP(=O)(O)O)[C@H]1O [adenosine 3'-monophosphate (3'-AMP)] | 0.02857 |  |  |  |
| CC(=O)c1cccc(OS(=O)(=O)O)c1 [3-acetylphenol sulfate] |  |  |  | Log2FoldChange [2]: -1.089 |
| CCCCCCCCCC(O)CC(=O)O (centres unmarked) [3-hydroxylaurate] |  | -0.1203 |  |  |
| CCCCCCCC/C=C\CCCCCCCC(=O)O[C@H](COC(=O)CCCCCCCCCCCCCCCCC)COP(=O)([O-])OCC[N+](C)(C)C [1-stearoyl-2-oleoyl-GPC (18:0/18:1)] | -0.1361 |  | 0.263 |  |
| CC(C)C[C@H](NC(=O)CC[C@H](N)C(=O)O)C(=O)O [gamma-glutamylleucine] | 0.251 | 0.02857 |  |  |
| O=c1c(-c2ccc(O)cc2)coc2cc(O)ccc12 [daidzein] |  |  |  | Log2FoldChange (mouse, in vivo): -1.474 |
| CCCCC/C=C\C/C=C\C/C=C\C/C=C\CCCC(=O)O[C@H](CO/C=C\CCCCCCCCCCCCCC)COP(=O)([O-])OCC[N+](C)(C)C | -0.08927 |  | 0.546 |  |
| CCCCCC/C=C\CCCCCCCC(=O)O[C@H](CO)COP(=O)([O-])OCC[N+](C)(C)C [2-palmitoleoyl-GPC (16:1)*] | 0.1375 |  | 0.9635 |  |
| NCCCCNCCCN [spermidine] | 0.275 |  | 0.5361 |  |
| NCCOP(=O)(O)OCC(O)CO (centres unmarked) [glycerophosphoethanolamine] | 0.1763 |  | 0.6508 |  |
| Cc1c[nH]c(=O)[nH]c1=O [thymine] | 0.5945 |  | 0.3674 |  |
| CCC(C)C(=O)OC(CC(=O)[O-])C[N+](C)(C)C (centres unmarked) [2-methylbutyrylcarnitine (C5)] |  | 0.111 |  |  |
| C=CC1=C(C)c2cc3[n-]c(cc4[n-]c(cc5nc(cc1n2)C(C)=C5C=C)c(C)c4CCC(=O)O)c(CCC(=O)O)c3C.[Fe+2] [heme] |  |  |  | Log2FoldChange [2]: -0.3401 |
| CC(=O)NC(CCCCn1c(C=O)ccc1CO)C(=O)O (centres unmarked) [N-acetylpyrraline] |  |  | 0.2869 |  |
| CC(C)C[C@H](N)C(=O)N1C[C@H](O)C[C@H]1C(=O)O [leucylhydroxyproline*] (H-Leu-[Hyp]-OH) |  | 0.1763 |  |  |
| CCCCCC/C=C\CCCC(=O)OC(CC(=O)[O-])C[N+](C)(C)C (centres unmarked) [5-dodecenoylcarnitine (C12:1)] |  |  | 0.546 |  |
| O=S(=O)(O)Oc1ccc2cc[nH]c2c1 [6-hydroxyindole sulfate] |  |  | 0.5753 |  |
| CCC(=O)OC(CC(=O)[O-])C[N+](C)(C)C (centres unmarked) [propionylcarnitine (C3)] | 0.3896 | 0.09761 |  |  |
| CNC(=N)NCCC[C@H](N)C(=O)O [N-monomethylarginine] |  |  |  | Log2FoldChange (mouse, in vivo): 0.2388 and 0 |
| CCCCCCCCCCCCC/C=C/[C@@H](O)[C@@H](N)CO [sphingosine] | 0.1375 |  | 0.3561 |  |
| CCCCC(=O)NCC(=O)O [valerylglycine] |  |  | 0.6135 |  |
| O=C(O)CNC(=O)/C=C/c1ccccc1 [cinnamoylglycine] |  |  | 0.9928 |  |
| Cn1c(=N)ccn([C@@H]2O[C@H](CO)[C@@H](O)[C@H]2O)c1=O [3-methylcytidine] | -0.1203 |  |  | Log2FoldChange [2]: -1.322 |

| SMILES | Log2FoldChange [1] | Log2FoldChange [3] | Log2FoldChange [4] | also measured |
| --- | --- | --- | --- | --- |
| CSC[C@H]1O[C@@H](n2cnc3c(N)ncnc32)[C@H](O)[C@@H]1O [5-methylthioadenosine (MTA)] | 0.2265 |  | 0.2265 |  |
| CCCCCCCC/C=C\CCCCCCCC(=O)N[C@@H](CO)C(=O)O [N-oleoylserine] | 0.251 |  |  |  |
| CC(=O)N[C@H]1[C@H]([C@@H](O)[C@@H](O)CO)O[C@@](O)(C(=O)O)C[C@@H]1O [N-acetylneuraminate] | 0.1763 |  |  |  |
| CC(=O)NC(Cc1ccccc1)C(=O)O (centres unmarked) [N-acetylphenylalanine] | 0.2869 | 0.189 |  |  |
| CCCCC/C=C\C/C=C\C/C=C\C/C=C\CCCC(=O)O[C@H](COC(=O)CCCCCCCCCCCCCCC)COP(=O)(O)OC1C(O)C(O)C(O)C(O)C1O (some centres unmarked) | -0.4344 |  |  |  |
| CCCCCC(N)C(=O)O (centres unmarked) [2-aminoheptanoate] |  | -0.1047 |  |  |
| O=C(O)CCCCCCCCCCCCCCCC(=O)O [heptadecanedioate (C17-DC)] |  |  | 0.7312 |  |
| CCCCCCCCCCCCC/C=C/[C@@H](O)[C@H](COP(=O)([O-])OCC[N+](C)(C)C)NC(=O)CCCCCCCCCCCCCCCCC [stearoyl sphingomyelin (d18:1/18:0)] | -0.2863 |  |  |  |
| CCCCCCCCCCCCCCCCCC(=O)OC[C@@H](O)COP(=O)(O)OC1[C@H](O)[C@H](O)C(O)[C@H](O)[C@H]1O (some centres unmarked) [1-stearoyl-GPI (18:0)] | 0.08406 |  |  | Log2FoldChange [2]: -0.2176 |
| CCCCCCCC/C=C\CCCCCCCC(=O)O[C@H](CO/C=C\CCCCCCCCCCCCCC)COP(=O)([O-])OCC[N+](C)(C)C |  |  | 0.251 |  |
| O=C(O)Cc1ccccc1O [2-hydroxyphenylacetate] |  | 0.09761 |  |  |
| O=C(O)C1CC(O)CN1C(=O)C1CCCN1 (centres unmarked) [pro-hydroxy-pro] (H-Pro-[Hyp]-OH; configuration not given here) | 0.02857 | 0.05658 |  |  |
| O=C(O)[C@@H](O)[C@@H](O)[C@H](O)CO [lyxonate] | -0.1844 |  |  |  |
| CC/C=C\C/C=C\C/C=C\C/C=C\C/C=C\C/C=C\CCC(=O)O [docosahexaenoate (DHA; 22:6n3)] | 0.546 | -0.074 |  |  |
| CC(O)CCCC(=O)O (centres unmarked) [5-hydroxyhexanoate] |  |  | 0.3334 |  |
| CC[C@H](C)[C@H](NC(=O)CC[C@H](N)C(=O)O)C(=O)O [gamma-glutamylisoleucine*] |  | 0 |  |  |
| C[N+](C)(C)[C@@H](Cc1c[nH]c(=S)[nH]1)C(=O)[O-] [ergothioneine] |  | -0.074 |  |  |
| CSCC[C@H](NC=O)C(=O)O [N-formylmethionine] | 0.263 |  |  |  |
| CCCCCCCCCCCCCCCCCCCC(=O)O [arachidate (20:0)] | -0.1361 | -0.1047 |  |  |
| C[S+](CC[C@H](N)C(=O)[O-])C[C@H]1O[C@@H](n2cnc3c(N)ncnc32)[C@H](O)[C@@H]1O (some centres unmarked) [S-adenosylmethionine (SAM)] | 0.5261 |  |  |  |
| CCCCCCCC/C=C\CCCCCCCC(=O)OC(CO)CO [2-oleoylglycerol (18:1)] | 0.2265 | -0.0145 |  |  |
| NC(N)=O [urea] | 0.111 | 0.1375 |  |  |
| Nc1ccccc1C(=O)CC(N)C(=O)O (centres unmarked) [kynurenine] | 0.05658 |  | 0.3334 |  |

| SMILES | Log2FoldChange [1] | Log2FoldChange [3] | Log2FoldChange [4] | also measured |
| --- | --- | --- | --- | --- |
| O=C(O)/C=C/c1ccc(O)cc1 [4-hydroxycinnamate] |  | 0.2016 |  |  |
| CC(=O)N[C@H](C(=O)O)C(C)C [N-acetylvaline] | 0.189 | 0 |  |  |
| CCCCCCCCCCCCCCCCC(=O)O [margarate (17:0)] |  | -0.1203 |  |  |
| Cc1ncc(C[n+]2csc(CCO)c2C)c(N)n1 [thiamin (Vitamin B1)] |  |  | 0.3896 |  |
| N[C@@H](CCC(=O)N[C@@H](Cc1c[nH]c2ccccc12)C(=O)O)C(=O)O [gamma-glutamyltryptophan] | 0.251 |  | 0.2388 |  |
| NCCCCN [putrescine] | 0.3561 |  | 0.263 |  |
| C[C@H](CCC(=O)O)[C@H]1CC[C@H]2[C@@H]3[C@H](O)C[C@@H]4CC(=O)CC[C@]4(C)[C@H]3C[C@H](O)[C@]12C [3-dehydrocholate] |  |  | 0.8319 |  |
| CCCCCCCCCCCCCCCCCC(=O)O[C@H](CO)COP(=O)(O)OCCN [2-stearoyl-GPE (18:0)*] | 0.1763 |  | 0.3103 |  |
| O=C(O)CCCCCCC(=O)O [suberate (C8-DC)] |  | -0.0145 |  |  |
| CCCCCCCCCCCC(=O)O [laurate (12:0)] | 0.09761 | -0.1203 |  |  |
| N[C@@H](CCSC[C@H](N)C(=O)O)C(=O)O [cystathionine] | 0.3785 |  |  |  |
| CCCCC/C=C\C/C=C\CCCCCCCC(=O)OC(CO)CO [2-linoleoylglycerol (18:2)] | 0.5656 |  |  | Log2FoldChange [2]: -0.1844 |
| NCCCC[C@H](N)C(=O)O [lysine] |  |  |  | Log2FoldChange (mouse, in vivo): -0.1203 and 0.05658 |
| C[C@H](O)CC(=O)OC(CC(=O)[O-])C[N+](C)(C)C (stereo partly drawn) [(S)-3-hydroxybutyrylcarnitine] |  | 0.1375 |  |  |
| O=C(O)CCCCCCCCCCCCCCCCCCC(=O)O [eicosanedioate (C20-DC)] |  | 0.2016 |  |  |
| CC/C=C\C/C=C\C/C=C\C/C=C\C/C=C\C/C=C\CCC(=O)O[C@H](COC(=O)CCCCCCC/C=C\CCCCCCCC)COP(=O)([O-])OCC[N+](C)(C)C | -0.08927 |  | 0.4222 |  |
| Cc1cc2nc3c(=O)[nH]c(=O)nc-3n(C[C@H](O)[C@H](O)[C@H](O)COP(=O)(O)OP(=O)(O)OC[C@H]3O[C@@H](n4cnc5c(N)ncnc54)[C@H](O)[C@@H]3O)c2cc1C [flavin adenine dinucleotide (FAD)] | -0.3585 |  | 0.3219 |  |
| CC(=O)NCCCNCCCC(=O)O [N-acetyl-isoputreanine] |  | 0.111 |  |  |
| CCCCCCCCCCCCC/C=C/[C@@H](O)[C@H](COP(=O)([O-])OCC[N+](C)(C)C)NC(=O)CCCCCCCCCCCCCCCCCCCCC [behenoyl sphingomyelin (d18:1/22:0)*] | -0.4344 | 0.09761 |  |  |
| CCCCCCCC/C=C\CCCCCCCC(=O)OC(COC(=O)CCCCCCCCCCCCCCCCC)COP(=O)(O)OC1C(O)C(O)C(O)C(O)C1O (centres unmarked) [1-stearoyl-2-oleoyl-GPI (18:0/18:1)*] |  |  | 0.2388 |  |
| O=C(O)CNC(=O)c1ccccc1O [2-hydroxyhippurate (salicylurate)] |  | -0.08927 |  |  |
| CS(=O)(=O)CC[C@H](N)C(=O)O [methionine sulfone] | -0.1203 | 0 |  |  |
| COC(=O)c1ccc(OS(=O)(=O)O)c(OC)c1 [methyl vanillate sulfate] |  |  | 0.3334 |  |
